Results reported in paper doi:10.1101/2024.05.10.593562 (bioRxiv, 2024).

Biological target: mutant GST-Rb379-928 (UniProt P06400)
Experiment: AlphaScreen or HTRF

Question: “HDAC1-FLAG (from UniProt Q13547 1-482) (enzyme)” was tested. Which binding did it give?
Answer: binds

These are yes or no findings as the source states them, for the method shown. Binding can be weak; no strength is given.
